Experimental data: PubChem BioAssay AID1224826 (NIAID, 2016)

Test: 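Knock-downs that raise or lower Tnf reporter signal after endotoxin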 (primary screen)
System: RAW264.7 G9 macrophages from mouse bearing reporters for p65 (GFP) and the Tnf promoter (mCherry)
Reagents: siRNA pool against mouse genes, 100 nM
Duration: 16 h of LPS stimulation, after 2 days of siRNA transfection
Conditions: bacterial lipopolysaccharide (Salmonella minnesota R595), 10 ng/ml
Detection: 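Nuclear mCherry signal of the Tnf promoter reporter measured by imaging after background removal, scaled to each plate median and turned into robust z-scores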
Direction: Tnf reporter robust z-score: higher = stronger Tnf promoter reporter signal after LPS
Rule for the call: 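Called active when robust z-score is at most -1.3, matching the median of the Tlr4 knock-down control, or over 3; control wells and wells with under 50 cells never active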
Meaning of the calls: active = Tnf reporter clearly lowered or raised; inactive = no clear change in Tnf reporter
In all, the deposit lists about 17,000 reagents; below is a random part of them. In the full data, about 1,110 (6.6%) were called active. 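Active means lowered or raised reporter signal; replicate intensities are raw and not normalised per plate.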 Further read-outs or replicates are left out here. Reagent sequences are not shown.

Rps4x [SID315469045]
- Tnf reporter robust z-score: -1.23
- fewer than 50 cells in well: enough cells in well
- Call: inactive

Gmppa [SID315473717]
- Tnf reporter robust z-score: 0.85
- fewer than 50 cells in well: enough cells in well
- Call: inactive

Or2a56 [SID315480305]
- fewer than 50 cells in well: fewer than 50 cells per well; well left out of calls
- Call: inactive

Il6st [SID315467462]
- Tnf reporter robust z-score: -0.13
- fewer than 50 cells in well: enough cells in well
- Call: inactive

Nkx1-2 [SID315469102]
- Tnf reporter robust z-score: 1.14
- fewer than 50 cells in well: enough cells in well
- Call: inactive

Flrt3 [SID315474235]
- Tnf reporter robust z-score: 0.49
- fewer than 50 cells in well: enough cells in well
- Call: inactive

Mocs1 [SID315471662]
- Tnf reporter robust z-score: -0.52
- fewer than 50 cells in well: enough cells in well
- Call: inactive

Zfp385c [SID315481008]
- Tnf reporter robust z-score: -0.91
- fewer than 50 cells in well: enough cells in well
- Call: inactive

Gk2 [SID315466918]
- Tnf reporter robust z-score: -0.54
- fewer than 50 cells in well: enough cells in well
- Call: inactive

Rnase1 [SID315468975]
- Tnf reporter robust z-score: 1.44
- fewer than 50 cells in well: enough cells in well
- Call: inactive

Gadd45a [SID315466288]
- Tnf reporter robust z-score: -0.28
- fewer than 50 cells in well: enough cells in well
- Call: inactive

Rpusd1 [SID315476557]
- fewer than 50 cells in well: fewer than 50 cells per well; well left out of calls
- Call: inactive

Copied from the list:
Under “Call”, Mocs1 [SID315471662] has inactive
Value for Rpusd1 [SID315476557] under “fewer than 50 cells in well”: fewer than 50 cells per well; well left out of calls

Continued:
Mgst3 [SID315472449]
- Tnf reporter robust z-score: -1.06
- fewer than 50 cells in well: enough cells in well
- Call: inactive

Retn [SID315471739]
- Tnf reporter robust z-score: 2.98
- fewer than 50 cells in well: enough cells in well
- Call: inactive

Npvf [SID315472027]
- Tnf reporter robust z-score: -0.39
- fewer than 50 cells in well: enough cells in well
- Call: inactive

Proser3 [SID315481655]
- Tnf reporter robust z-score: 0.08
- fewer than 50 cells in well: enough cells in well
- Call: inactive

Tbc1d5 [SID315474498]
- Tnf reporter robust z-score: 0.66
- fewer than 50 cells in well: enough cells in well
- Call: inactive

Or4k2 [SID315480163]
- Tnf reporter robust z-score: -0.27
- fewer than 50 cells in well: enough cells in well
- Call: inactive

Sart1 [SID315469099]
- Tnf reporter robust z-score: -1.18
- fewer than 50 cells in well: enough cells in well
- Call: inactive

Kcna1 [SID315467558]
- Tnf reporter robust z-score: -0.42
- fewer than 50 cells in well: enough cells in well
- Call: inactive

Dynlrb1 [SID315472814]
- Tnf reporter robust z-score: -0.76
- fewer than 50 cells in well: enough cells in well
- Call: inactive
